Paper PMC8138766
These are yes or no findings as the source states them, for the method shown. Binding seen in cells or lysates may run through a third protein. A result given as binding can be weak or reduced; the word gives no strength. Sequences can lack the tags named with a protein.

Target: T1, Rav2-FLAG (yeast) (UniProt Q03956)
T1 sequence: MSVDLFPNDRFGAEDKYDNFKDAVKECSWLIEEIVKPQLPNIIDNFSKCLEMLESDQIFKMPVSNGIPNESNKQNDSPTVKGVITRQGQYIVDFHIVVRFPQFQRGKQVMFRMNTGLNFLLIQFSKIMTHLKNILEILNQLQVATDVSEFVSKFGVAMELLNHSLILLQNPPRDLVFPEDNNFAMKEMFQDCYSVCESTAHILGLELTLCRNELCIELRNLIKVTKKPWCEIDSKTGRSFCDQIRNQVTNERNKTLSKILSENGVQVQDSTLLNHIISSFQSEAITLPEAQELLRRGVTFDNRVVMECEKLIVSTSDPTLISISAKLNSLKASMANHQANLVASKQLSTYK
Assay: co-IP; anti-FLAG M2 affinity column on cleared lysate of galactose-induced yeast (bait Rav2-FLAG), PBS or TBSE pH 7.4, elution with FLAG peptide; Coomassie SDS-PAGE and immunoblots for V1 subunits A, B and C

binding: binds
Substance: V1 subcomplex of the V-ATPase (cytosolic V1 complex) (yeast (endogenous))
